For at least one compound, name, drawing or mass did not settle the structure.
Assays:
[1] = system: A3GT encoded by pSFL333; test: Activity of rose anthocyanin 3GT, crude enzyme from E. coli expressing pSFL344; assay type: biochemical; conditions: 2 mM substrate stock, 5 mM UDP-glucose stock, 15 minutes at 30° C., versus empty-vector crude enzyme
[2] = system: protein encoded by cDNA contained in pSPB1123 (flavonol 3GT); test: Glucosyltransferase activity of the protein encoded by pSPB1123 cDNA expressed in yeast, product measured by HPLC; assay type: biochemical, rose; conditions: UDP-glucose as donor
Description: In order to analyze the activity of a protein encoded by cDNA contained in pSPB1123, this cDNA was expressed in yeast cells. Yeast expression vector pYE22m (Plant Cell Physiol. (1996) 37, 711-716) was used to express the cDNA in yeast. A fragment obtained by digested pSPB1123 cDNA with EcoRI and KpnI was inserted into an EcoRI and KpnI recognition sequence of pYE22m to obtain a yeast expression vector. This vector was then inserted into yeast strain G1315 followed by measurement of activity of the protein encoded by pSPB1123 according to the method described on pp. 114-118 of Shinseibutsugaku Jikken (New Biological Experiment) Manual 3 (Kagaku-Dojin Publishing Co., Inc.). The method for measuring activity and the conditions for measuring a product by HPLC were the same as the method and the like described in Plant Physiology (2003) 132, 1652-1663. Furthermore, anthocyanin (cyanidin, pelargonidin), cyanidin 3-glucoside (cyanidin 3G), cyanidin 3,5-diglucoside (cyanidin 3,5G), flavonol (quercetin, kaempferol) and flavone (apigenin, luteolin) were used as substrates for measurement of the activity.

| SMILES | glycosylated product detected (3-glucoside) [1] | activity that added glucose to the substrate (3-glycosylation) [2] |
| --- | --- | --- |
| Oc1cc(O)c2cc(O)c(-c3ccc(O)c(O)c3)[o+]c2c1 [cyanidin] | a specific product was detected | slight activity |
| Oc1cc(O)c2cc(O)c(-c3cc(O)c(O)c(O)c3)[o+]c2c1 [delphinidin] | a specific product was detected |  |

Reference: patent US20100306877A1, “FLAVONOID GLUCOSYLTRANSFERASE AND USE OF SAME” (International Flower Development Proprietary Limited, priority 2006, published 2010)
